{
  "source": "the supplement of paper PMC8728848",
  "binders": {"B1": {"name": "FliC (Clostridium difficile) (protein)", "chain": "MRVNTNVSALIANNQMGRNVNGQSKSMEKLSSGVRIKRAADDAAGLAISEKMRAQIKGLDQAGRNVQDGISVVQTAEGSLEETGNILQRMRTLSLQSANEINNTEEREKIADELTQLKDEIERISSSTEFNGKKLLDGTSSTIRLQVGASYGTNVSGTSNNNNEIKIQLVNTASIMASAGITTASIGSMKAGGTTGTDAAKTMVSSLDAALKSLNSSRAKLGAQQNRLESTQNNLNNTLENVTAAESRIRDTDVASEMVNLSKMNILVQASQSMLAQANQQPQGVLQLLG"}},
  "experiment_in_all_cases": "glycan array binding signal (z-score within array); higher = stronger binding",
  "conditions_in_all_cases": "glycan notation: IUPAC condensed, linker removed",
  "key": {"[1]": {"target": "Neu5Ac(a2-6)Gal(b1-4)GlcNAc(b1-3)Gal(b1-4)GlcNAc(b1-3)GalNAc", "method_in_brief": "(§1)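 Glycan array data came from 3228 arrays in the Consortium for Functional Glycomics database, and only arrays with an available protein sequence were kept. Glycan names were put into IUPAC-condensed notation, and columns mapping to the same glycan were averaged. The binding signal is a within-array Z-score, averaged across arrays of one protein sequence run at different concentrations or buffers and across linkers. A negative Z-score can be read as non-binding.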"}, "[2]": {"target": "Neu5Ac(a2-6)Gal(b1-4)GlcNAc(b1-3)Gal(b1-4)GlcNAc(b1-3)[Neu5Ac(a2-6)Gal(b1-4)GlcNAc(b1-3)Gal(b1-4)GlcNAc(b1-6)]GalNAc", "method_in_brief": "as §1"}, "[3]": {"target": "Neu5Ac(a2-6)Gal(b1-4)GlcNAc(b1-3)Gal(b1-4)GlcNAc(b1-6)[Gal(b1-3)]GalNAc", "method_in_brief": "as §1"}, "[4]": {"target": "Neu5Ac(a2-6)Gal(b1-4)GlcNAc(b1-3)Gal(b1-4)[Fuc(a1-3)]GlcNAc(b1-3)Gal(b1-4)[Fuc(a1-3)]GlcNAc", "method_in_brief": "as §1"}, "[5]": {"target": "Neu5Ac(a2-6)Gal(b1-4)GlcNAc(b1-3)GalNAc", "method_in_brief": "as §1"}, "[6]": {"target": "Neu5Ac(a2-6)Gal(b1-4)GlcNAc(b1-3)[Neu5Ac(a2-6)Gal(b1-4)GlcNAc(b1-6)]GalNAc", "method_in_brief": "as §1"}, "[7]": {"target": "Neu5Ac(a2-6)Gal(b1-4)GlcNAc(b1-6)GalNAc", "method_in_brief": "as §1"}, "[8]": {"target": "Neu5Ac(a2-6)Gal(b1-4)GlcNAc(b1-6)[Gal(b1-3)GlcNAc(b1-3)]Gal(b1-4)Glc", "method_in_brief": "as §1"}, "[9]": {"target": "Neu5Ac(a2-6)Gal(b1-4)GlcNAc(b1-6)[Gal(b1-3)]GalNAc", "method_in_brief": "as §1"}, "[10]": {"target": "Neu5Ac(a2-6)Gal(b1-4)GlcNAc6S", "method_in_brief": "as §1"}, "Neu5Ac(a2-6)GalNAc": {"target": "Neu5Ac(a2-6)GalNAc", "method_in_brief": "as §1"}, "[11]": {"target": "Neu5Ac(a2-6)GalNAc(b1-4)GlcNAc", "method_in_brief": "as §1"}, "[12]": {"target": "Neu5Ac(a2-6)GalNAc(b1-4)GlcNAc6S", "method_in_brief": "as §1"}, "[13]": {"target": "Neu5Ac(a2-6)GlcNAc(b1-4)GlcNAc", "method_in_brief": "as §1"}, "[14]": {"target": "Neu5Ac(a2-6)GlcNAc(b1-4)GlcNAc(b1-4)GlcNAc", "method_in_brief": "as §1"}, "Neu5Ac(a2-8)Neu5Ac": {"target": "Neu5Ac(a2-8)Neu5Ac", "method_in_brief": "as §1"}, "[15]": {"target": "Neu5Ac(a2-8)Neu5Ac(a2-3)Gal(b1-3)GalNAc(b1-4)[Neu5Ac(a2-3)]Gal(b1-4)Glc", "method_in_brief": "as §1"}, "[16]": {"target": "Neu5Ac(a2-8)Neu5Ac(a2-3)Gal(b1-3)GalNAc(b1-4)[Neu5Ac(a2-8)Neu5Ac(a2-3)]Gal(b1-4)Glc", "method_in_brief": "as §1"}, "[17]": {"target": "Neu5Ac(a2-8)Neu5Ac(a2-3)Gal(b1-4)Glc", "method_in_brief": "as §1"}, "[18]": {"target": "Neu5Ac(a2-8)Neu5Ac(a2-3)Gal(b1-4)GlcNAc", "method_in_brief": "as §1"}, "[19]": {"target": "Neu5Ac(a2-8)Neu5Ac(a2-3)[Gal(b1-3)GalNAc(b1-4)]Gal(b1-4)Glc", "method_in_brief": "as §1"}, "[20]": {"target": "Neu5Ac(a2-8)Neu5Ac(a2-3)[GalNAc(b1-4)]Gal(b1-4)Glc", "method_in_brief": "as §1"}, "[21]": {"target": "Neu5Ac(a2-8)Neu5Ac(a2-8)Neu5Ac", "method_in_brief": "as §1"}, "[22]": {"target": "Neu5Ac(a2-8)Neu5Ac(a2-8)Neu5Ac(a2-3)Gal(b1-4)Glc", "method_in_brief": "as §1"}, "[23]": {"target": "Neu5Ac(a2-8)Neu5Ac(a2-8)Neu5Ac(a2-3)[Gal(b1-3)GalNAc(b1-4)]Gal(b1-4)Glc", "method_in_brief": "as §1"}, "[24]": {"target": "Neu5Ac(a2-8)Neu5Ac(a2-8)Neu5Ac(a2-3)[GalNAc(b1-4)]Gal(b1-4)Glc", "method_in_brief": "as §1"}, "[25]": {"target": "Neu5Ac(a2-8)Neu5Ac(a2-8)Neu5Ac(a2-8)Neu5Ac(a2-3)[GalNAc(b1-4)]Gal(b1-4)Glc", "method_in_brief": "as §1"}, "[26]": {"target": "Neu5Ac(a2-8)Neu5Gc(a2-3)Gal(b1-4)GlcNAc", "method_in_brief": "as §1"}, "[27]": {"target": "Neu5Ac(b2-6)Gal(b1-4)GlcNAc", "method_in_brief": "as §1"}, "Neu5Ac(b2-6)GalNAc": {"target": "Neu5Ac(b2-6)GalNAc", "method_in_brief": "as §1"}, "[28]": {"target": "Neu5Ac9Ac(a2-3)Gal(b1-3)GlcNAc", "method_in_brief": "as §1"}, "[29]": {"target": "Neu5Ac9Ac(a2-3)Gal(b1-4)GlcNAc", "method_in_brief": "as §1"}, "[30]": {"target": "Neu5Ac9Ac(a2-6)Gal(b1-4)GlcNAc", "method_in_brief": "as §1"}, "[31]": {"target": "Neu5Gc(a2-3)Gal(b1-3)GlcNAc", "method_in_brief": "as §1"}, "[32]": {"target": "Neu5Gc(a2-3)Gal(b1-3)[Fuc(a1-4)]GlcNAc", "method_in_brief": "as §1"}, "Neu5Gc(a2-3)Gal(b1-4)Glc": {"target": "Neu5Gc(a2-3)Gal(b1-4)Glc", "method_in_brief": "as §1"}, "[33]": {"target": "Neu5Gc(a2-3)Gal(b1-4)GlcNAc", "method_in_brief": "as §1"}, "[34]": {"target": "Neu5Gc(a2-3)Gal(b1-4)GlcNAc(b1-3)Gal(b1-4)GlcNAc(b1-2)Man(a1-3)[Neu5Gc(a2-3)Gal(b1-4)GlcNAc(b1-3)Gal(b1-4)GlcNAc(b1-2)Man(a1-6)]Man(b1-4)GlcNAc(b1-4)GlcNAc", "method_in_brief": "as §1"}, "[35]": {"target": "Neu5Gc(a2-3)Gal(b1-4)[Fuc(a1-3)]GlcNAc", "method_in_brief": "as §1"}, "[36]": {"target": "Neu5Gc(a2-6)Gal(b1-4)GlcNAc", "method_in_brief": "as §1"}, "Neu5Gc(a2-6)GalNAc": {"target": "Neu5Gc(a2-6)GalNAc", "method_in_brief": "as §1"}, "[37]": {"target": "Neu5Gc(a2-8)Neu5Ac(a2-3)Gal(b1-4)GlcNAc", "method_in_brief": "as §1"}, "[38]": {"target": "Neu5Gc(a2-8)Neu5Gc(a2-3)Gal(b1-4)GlcNAc", "method_in_brief": "as §1"}, "[39]": {"target": "Neu5Gc(a2-8)Neu5Gc(a2-3)Gal(b1-4)GlcNAc(b1-3)Gal(b1-4)GlcNAc", "method_in_brief": "as §1"}, "[40]": {"target": "Neu5Gc(a2-8)Neu5Gc(a2-6)Gal(b1-4)GlcNAc", "method_in_brief": "as §1"}, "[41]": {"target": "Neu5Gc(b2-6)Gal(b1-4)GlcNAc", "method_in_brief": "as §1"}},
  "note": "This is one part of the list.",
  "data": [
    {"binder": "B1", "values": [
      {"measurement": "glycan array binding signal (z-score)", "setting": "[1]", "result": -0.188},
      {"measurement": "glycan array binding signal (z-score)", "setting": "[2]", "result": 0.605},
      {"measurement": "glycan array binding signal (z-score)", "setting": "[3]", "result": -0.605},
      {"measurement": "glycan array binding signal (z-score)", "setting": "[4]", "result": -0.059},
      {"measurement": "glycan array binding signal (z-score)", "setting": "[5]", "result": 0.533},
      {"measurement": "glycan array binding signal (z-score)", "setting": "[6]", "result": -0.232},
      {"measurement": "glycan array binding signal (z-score)", "setting": "[7]", "result": 0.009},
      {"measurement": "glycan array binding signal (z-score)", "setting": "[8]", "result": -0.577},
      {"measurement": "glycan array binding signal (z-score)", "setting": "[9]", "result": -0.618},
      {"measurement": "glycan array binding signal (z-score)", "setting": "[10]", "result": -0.272},
      {"measurement": "glycan array binding signal (z-score)", "setting": "Neu5Ac(a2-6)GalNAc", "result": -0.549},
      {"measurement": "glycan array binding signal (z-score)", "setting": "[11]", "result": -0.478},
      {"measurement": "glycan array binding signal (z-score)", "setting": "[12]", "result": 0.879},
      {"measurement": "glycan array binding signal (z-score)", "setting": "[13]", "result": -0.313},
      {"measurement": "glycan array binding signal (z-score)", "setting": "[14]", "result": -0.86},
      {"measurement": "glycan array binding signal (z-score)", "setting": "Neu5Ac(a2-8)Neu5Ac", "result": -0.234},
      {"measurement": "glycan array binding signal (z-score)", "setting": "[15]", "result": -0.297},
      {"measurement": "glycan array binding signal (z-score)", "setting": "[16]", "result": -0.178},
      {"measurement": "glycan array binding signal (z-score)", "setting": "[17]", "result": -0.262},
      {"measurement": "glycan array binding signal (z-score)", "setting": "[18]", "result": -0.401},
      {"measurement": "glycan array binding signal (z-score)", "setting": "[19]", "result": 1.26},
      {"measurement": "glycan array binding signal (z-score)", "setting": "[20]", "result": -0.626},
      {"measurement": "glycan array binding signal (z-score)", "setting": "[21]", "result": -0.738},
      {"measurement": "glycan array binding signal (z-score)", "setting": "[22]", "result": -0.687},
      {"measurement": "glycan array binding signal (z-score)", "setting": "[23]", "result": -0.44},
      {"measurement": "glycan array binding signal (z-score)", "setting": "[24]", "result": -0.651},
      {"measurement": "glycan array binding signal (z-score)", "setting": "[25]", "result": -0.503},
      {"measurement": "glycan array binding signal (z-score)", "setting": "[26]", "result": -0.706},
      {"measurement": "glycan array binding signal (z-score)", "setting": "[27]", "result": 0.365},
      {"measurement": "glycan array binding signal (z-score)", "setting": "Neu5Ac(b2-6)GalNAc", "result": -0.14},
      {"measurement": "glycan array binding signal (z-score)", "setting": "[28]", "result": -0.747},
      {"measurement": "glycan array binding signal (z-score)", "setting": "[29]", "result": -0.003},
      {"measurement": "glycan array binding signal (z-score)", "setting": "[30]", "result": 0.17},
      {"measurement": "glycan array binding signal (z-score)", "setting": "[31]", "result": -0.551},
      {"measurement": "glycan array binding signal (z-score)", "setting": "[32]", "result": 0.28},
      {"measurement": "glycan array binding signal (z-score)", "setting": "Neu5Gc(a2-3)Gal(b1-4)Glc", "result": 0.225},
      {"measurement": "glycan array binding signal (z-score)", "setting": "[33]", "result": -0.017},
      {"measurement": "glycan array binding signal (z-score)", "setting": "[34]", "result": 0.136},
      {"measurement": "glycan array binding signal (z-score)", "setting": "[35]", "result": 0.078},
      {"measurement": "glycan array binding signal (z-score)", "setting": "[36]", "result": 0.664},
      {"measurement": "glycan array binding signal (z-score)", "setting": "Neu5Gc(a2-6)GalNAc", "result": -0.27},
      {"measurement": "glycan array binding signal (z-score)", "setting": "[37]", "result": -0.602},
      {"measurement": "glycan array binding signal (z-score)", "setting": "[38]", "result": 0.224},
      {"measurement": "glycan array binding signal (z-score)", "setting": "[39]", "result": -0.528},
      {"measurement": "glycan array binding signal (z-score)", "setting": "[40]", "result": -0.124},
      {"measurement": "glycan array binding signal (z-score)", "setting": "[41]", "result": -0.188}
    ]}
  ]
}
